Consider eleven compounds from PubChem BioAssay AID198 (DTP/NCI, 2004).

This experiment relates to B16 melanoma ip, C57BL/6 mice, median survival T/C. Description: NCI In Vivo Anticancer Drug Screen. Data for tumor model B16 Melanoma (intraperitoneal) in C57BL/6 mice. Conditions: T/C endpoint: median survival time, higher T/C = longer survival. As for the experimental part: The antitumor activity of compounds was measured in mice bearing transplantable tumors. Survival or tumor size were measured and the results are expressed as the measurement made in the treated group (T) divided by the measurement made in the vehicle treated control group (C). The tumor model used in this assay is B16 Melanoma (intraperitoneal) in C57BL/6 mice

[1] abbreviates: dose: 12.5 mg/kg/injection, schedule: Q01DX009 (ip), vehicle: saline.
Where [2] appears, read: dose: 25.0 mg/kg/injection, schedule: Q01DX009 (ip), vehicle: saline.
The mark [3] stands for this setting: dose: 200.0 mg/kg/injection, schedule: Q01DX009 (ip), vehicle: saline.

The list is a part of this screen's results and no random one: it gathers tests that were run many times, whatever their T/C, doses with no T/C, and many T/C values between a quarter and a half above the control. Other doses and runs of a compound stand elsewhere. T/C is the treated group as % of the vehicle group. Some doses have a count of surviving animals in place of a T/C: the source holds a T/C of zero for them, seemingly a mark for toxic or unscored doses. Some doses without a T/C left all or most animals alive at the check, yet need not have been tolerated: survival well below the control is almost never listed, so the zero probably covers shortened survival too. Survivors were counted at the toxicity check, usually on the fifth day, unless a day is given; later deaths do not show. Schedules are NCI's codes, read here as Q, the interval in days (D) or hours (H), X, the number of doses. For survival time, the PubChem record calls one and a half times the control and up active, and a quarter to a half above the control has no call in these data; cut-offs in other NCI protocols can differ.

As to `CCCCc1ccc(NC(=O)N(CCCl)N=O)cc1`, under setting [1], the T/C is 125 % of control. Under setting [2], the survivor count is on record as 6 of 6. For the compound `COc1cc(/C=N\O)nc(-c2ccccn2)c1`, the survivor count under setting [3] is given as 6 of 6.

With `COc1cc([C@@H]2c3cc4c(cc3C[C@H]3COC(=O)[C@@H]32)OCO4)cc(OC)c1OC`, the survivor count is, setting by setting: (dose: 25.0 mg/kg/injection, schedule: Q01DX009 (ip), vehicle: saline with Tween-80) 4 of 6; (dose: 50.0 mg/kg/injection, schedule: Q01DX009 (ip), vehicle: saline with Tween-80) 1 of 6. For the compound `c1ccc2sc(SSN3CC4CCC(CC4)C3)nc2c1`, the survivor count (dose: 400.0 mg/kg/injection, schedule: Q01DX009 (ip), vehicle: saline with Tween-80) is recorded as 10 of 10.

`O=c1[nH]cc(F)c(=O)[nH]1`: the survivor count (dose: 40.0 mg/kg/injection, schedule: Q01DX009 (ip), vehicle: saline) is on record as 10 of 10. Turning to `COc1cc(C[C@H]2c3cc(OC)c(OC)cc3CCN2C)c(Oc2cc3c(cc2OC)-c2c(OC)c(OC)cc4c2[C@H](C3)N(C)CC4)cc1OC`, the survivor count under setting [3] was 10 of 10. Turning to `Nc1ncnc2c1ccn2C1OC(CO)C(O)C1O` (stereo unspecified), the survivor count (dose: 2.5 mg/kg/injection, schedule: Q01DX009 (ip), vehicle: saline) was 10 of 10. On to `CCN(CC)CCOc1ccc2c(c1)C(=O)c1cc(OCCN(CC)CC)ccc1-2`, for which, for the setting “dose: 200.0 mg/kg/injection, schedule: Q01DX009 (ip), vehicle: saline with Tween-80”, the survivor count is 2 of 6. For `O=c1[nH]cc(N(CCCl)CCCl)c(=O)[nH]1`, the T/C (dose: 0.75 mg/kg/injection, schedule: Q01DX009 (ip), vehicle: saline) was 125 % of control. For the same compound, the survivor count runs as follows: (dose: 1.5 mg/kg/injection, schedule: Q01DX009 (ip), vehicle: saline) 10 of 10; (dose: 3.0 mg/kg/injection, schedule: Q01DX009 (ip), vehicle: saline) 10 of 10.

Regarding `O=NN(CCCl)C(=O)Nc1ccc(CCCl)cc1`, the survivor count was 6 of 6 under setting [1] and 6 of 6 under setting [2].

As for `CC1OC(O[C@@H]2C=C3CC[C@@H]4[C@H](CC[C@]5(C)[C@@H](c6ccc(=O)oc6)CC[C@]45O)[C@@]3(C)CC2)C(O)C(O)C1O` (stereo partly specified), the survivor count runs as follows: (dose: 10.0 mg/kg/injection, schedule: Q01DX001 (sc), vehicle: steroid suspending solution) 4 of 10; (dose: 10.0 mg/kg/injection, schedule: Q01DX009 (sc), vehicle: steroid suspending solution) 9 of 10; (dose: 20.0 mg/kg/injection, schedule: Q01DX001 (sc), vehicle: steroid suspending solution) 0 of 10; (dose: 20.0 mg/kg/injection, schedule: Q01DX009 (sc), vehicle: steroid suspending solution) 5 of 10; (dose: 40.0 mg/kg/injection, schedule: Q01DX001 (sc), vehicle: steroid suspending solution) 2 of 10; (dose: 80.0 mg/kg/injection, schedule: Q01DX001 (sc), vehicle: steroid suspending solution) 0 of 10.
